All values are in %. The record does not define 0% and 100%; most values in the screen are far below 50% and negative numbers occur (in some assays of this library far below -100). This is an unselected part of the compounds tested. A dash means the value is not listed here; it may have been measured.

Amino acid sequences for entries named in this document (tags omitted).
UniProt E9BF75, entry or part of it: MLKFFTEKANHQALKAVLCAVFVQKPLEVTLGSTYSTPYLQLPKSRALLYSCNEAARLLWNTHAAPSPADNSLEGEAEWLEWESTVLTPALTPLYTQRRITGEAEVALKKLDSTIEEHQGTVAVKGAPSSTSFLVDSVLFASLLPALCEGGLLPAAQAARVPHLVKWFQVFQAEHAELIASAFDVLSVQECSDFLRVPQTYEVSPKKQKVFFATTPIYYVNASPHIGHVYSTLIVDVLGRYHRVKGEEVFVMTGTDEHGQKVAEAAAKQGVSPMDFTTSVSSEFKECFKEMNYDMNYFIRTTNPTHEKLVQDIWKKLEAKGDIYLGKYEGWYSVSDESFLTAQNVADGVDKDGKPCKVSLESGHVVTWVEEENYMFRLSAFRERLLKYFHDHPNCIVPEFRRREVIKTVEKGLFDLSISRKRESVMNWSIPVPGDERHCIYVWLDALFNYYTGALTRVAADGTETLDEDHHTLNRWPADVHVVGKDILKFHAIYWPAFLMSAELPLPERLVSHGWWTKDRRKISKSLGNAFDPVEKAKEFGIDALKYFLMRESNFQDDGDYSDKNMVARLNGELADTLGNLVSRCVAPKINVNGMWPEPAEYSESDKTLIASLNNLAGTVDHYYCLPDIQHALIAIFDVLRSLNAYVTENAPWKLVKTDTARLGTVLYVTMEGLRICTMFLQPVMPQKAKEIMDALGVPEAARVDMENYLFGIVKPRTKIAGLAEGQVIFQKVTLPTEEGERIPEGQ

LdMetRS: 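Primary screen of methionyl-tRNA synthetase; the read-out is not stated. Target: Methionyl-tRNA synthetase (putative), Leishmania donovani (UniProt E9BF75). The test concentration is not given. The values are filed as inhibition. About 68,000 compounds were tested under these conditions; 0.035% (about 24) showed 50% or more at least once.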
Mtb heat-shock: 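Assay on Mycobacterium tuberculosis, filed only as a heat shock assay from Cornell; the read-out is not stated. The concentration is filed as 10 mM, unlikely as a test dose, so the dose is not known. The record gives no direction; compounds that gave an IC50 in retests scored well above the rest, so higher reads as stronger inhibition. Size under these conditions: about 69,000 compounds, about 930 of them at 50% or above in at least one test.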

SMILES | LdMetRS | Mtb heat-shock
Cc1ccc(NC(=O)N2CCCC(O)(CO)CC2)cc1Cl (centres undefined) | 9.804 | 5.952
O=C(C1CC=CC1)N1C[C@@H](OCc2cccnc2)[C@H]2OCCC[C@H]21 | 9.15 | -
Cc1cccc(C(=O)NCc2ccc(OCCN(C)C)cc2)c1C | 3.297 | 9.352
Cc1nccn1C1CCCN(C(=O)c2ccc(N(C)C)nn2)C1 (centres undefined) | 20.95 | -17.82
Cc1cc(C)nc(C2CCN(C(=O)c3cncnc3C)C2)n1 (centres undefined) | 9.003 | -28.51
Cc1nccnc1C1CCN(C2CCCC2O)CC1 (centres undefined) | 14.89 | -7.882
Cc1ccc(C)c(-c2csc(N)c2C#N)c1 | 7.054 | 18.93
CCCN(Cc1nccn1C)C(=O)C(CC)Nc1cccc(OC)c1 (centres undefined) | 9.6 | -27.64
CC(C)CN1CCCC1c1ccc(C(=O)Nc2cc[nH]n2)s1 (centres undefined) | 14.71 | -8.128
Cc1nc(CN2CCN(C(=O)NC(C)Cn3ccnc3)CC2)cs1 (centres undefined) | 15.3 | 8.362
CCCNC(=O)CC1OCCc2ccsc21 (centres undefined) | 15.36 | -0.249
CCC(C(=O)N1CCN(C(=O)N2CCOCC2)CC1)n1cccn1 (centres undefined) | 21.88 | -15.01
COCCN(Cc1sccc1C)Cc1nccn1CCOC | 10.61 | -20.4
O=C(NC1CC2(CCN(CCO)CC2)c2ccccc21)c1ccsc1.O=C(O)C(F)(F)F (centres undefined) | - | -10.81
Cc1ccnc(NS(=O)(=O)c2cc(C(N)=O)n(C)c2)c1 | 18.44 | -3.62
OCCCNc1nc(O)c2c(n1)-c1ccccc1CC21CCCCC1 | 11.66 | 12.63
O=C(CCC(=O)N1CCCC1c1cccs1)N1CCc2sccc2C1 (centres undefined) | 11.11 | 3.364
CN(Cc1ncnn1C1Cc2ccccc2C1)C1CCS(=O)(=O)C1 (centres undefined) | 19.81 | -27.92
Cc1nc(C)n(CC2CCCN(CC(=O)Nc3nnc(C)s3)C2)n1 (centres undefined) | 15.26 | -28.96
CN(CC1CC1)c1ccc2ccc(C(=O)NCCc3ccccc3)cn12 | 50.96 | 22.63
Cc1cc(NC(=O)CN2CCCC2c2noc(C)n2)n(C(C)(C)C)n1 (centres undefined) | -0.289 | 1.998
Cc1cnc(N2CCO[C@@H]3CC(COCc4cccnc4)C[C@H]32)nc1 (some centres undefined) | 10.93 | -
COc1ccc(CNC(=O)CNc2cc3c(cc2Cl)OCCO3)cc1 | 13.11 | -3.505
Cc1cc(NC(=O)Cn2ccc(=O)c3ccccc32)[nH]n1 | 16.1 | 7.103
Fc1ccc(CN2CCCC2Cn2cncn2)c2ncccc12 (centres undefined) | 8.075 | -10.74
CCn1cc(CN2CCCN(C(=O)c3cccc(C#N)c3)CC2)cn1 | 16.62 | 0.5584
Cc1cc(N(C)C)nc(C2COCCN2Cc2csc(C)n2)n1 (centres undefined) | -3.459 | 2.466
CC(=O)N1CCN(S(=O)(=O)c2ccc(C)c(F)c2)CC1 | 11.27 | 4.007
CC(C)c1noc(CCCC(=O)N2CCN(C)CC2c2ccccc2)n1 (centres undefined) | 14.75 | -18.62
C[S+]([O-])CCCNCc1cc(F)ccc1Br (centres undefined) | 13.77 | 11.6
Cc1cc(C)n(CC(=O)N(CC2CN(C)CCO2)c2nccs2)n1 (centres undefined) | 13.7 | 9.314
CS(=O)(=O)Cc1ccc(CNC(=O)c2cccnc2O)cc1 | 16.67 | 4.247
CC[C@H](C)[C@H](NC(=O)c1ccccc1-n1cnnn1)C(=O)OC | 4.564 | -15.74
CCN1CCC2(CC1)c1nc[nH]c1CCN2S(C)(=O)=O | 7.801 | 7.826
Cc1cc(C)n(CC2CN(Cc3nnc(C)o3)CCO2)n1 (centres undefined) | 11.58 | 20.22
CC(NC(=O)CCC1CCCCC1)c1nnc2n1CCC2 (centres undefined) | 18.18 | 1.892
CS(=O)(=O)N[C@@H]1CN(C(=O)c2cnccn2)[C@@H]2CCCO[C@@H]21 | 2.667 | -
CCS(=O)(=O)N1CCCN(CCCOC)CC1 | 6.443 | -2.422
O=C(O)C(F)(F)F.[H][C@@]12COC[C@@H](C(=O)N3CCC(F)CC3)[C@]1([H])CN(CC1CC1)C2 | - | -36.82
Cn1ccc2ccnc(CC3CN(C(=O)c4cscn4)C3)c21 | 7.12 | -3.676
O=C(NCc1cccs1)[C@H]1CC[C@@H]2[C@@H](CCN2c2ncccn2)O1 | 2.857 | -
Cc1c[nH]c(C(=O)N2CCC(c3nnc(CN(C)CCO)n3C)CC2)c1 | 6.704 | 21.2
O=C(Nc1cnccn1)[C@@H]1CCO[C@@H]2CCN(Cc3ccsc3)C[C@@H]21 | 15.92 | -
Cc1cc2n(n1)CCN(c1nc(N)nc3c1CCNCC3)C2 | 6.091 | 7.022
CC(C)Cc1cc(CC2(NCc3ccco3)COC2)no1 | 11.19 | -21.78
COc1ccc(S(=O)(=O)N2CCOC(Cn3ccnc3)C2)cc1.Cc1ccc(S(=O)(=O)O)cc1 (centres undefined) | - | 9.251
Cc1nccn1C1CCCN(C(=O)c2cc(O)nc3ccccc23)C1 (centres undefined) | 10.8 | 18.88
Cc1ccc(C(=O)N(C)CC(=O)NCC(F)(F)F)cn1 | 7.163 | 2.929
CN1CCCN(c2nccc(-c3c[nH]nc3C3CCCCC3)n2)CC1 | 9.091 | -15.07
Cc1ccc(CN2CCn3c(COc4cccnc4)cnc3C2C)o1.O=C(O)C(F)(F)F.O=C(O)C(F)(F)F (centres undefined) | - | 17.82
CCc1cccc(N2CCC(NC(=O)C3CCCO3)CC2)c1 (centres undefined) | 23.21 | -2.255
Cc1csc2ncc(-c3ccnc(NC4CCOCC4)n3)c(=O)n12 | 8.495 | -8.449
COc1ncccc1CNC(=O)c1cccnc1O | 11.66 | 31.89
COc1cn(CC(=O)N2CCN(c3ccc(Cl)cc3)CC2)c(C)cc1=O | 9.632 | -22.25
CCN(CCOC)C(=O)c1ccc2c(c1)nc(N1CC[C@H](O)C1)n2C | 9.804 | -3.325
CC(C)N1CCN(C)C2(CCN(C(=O)c3ccnnc3)CC2)C1=O | 9.343 | -31.78
Cc1ncsc1C(=O)N1CCc2nnc(C3CCCCN3C)n2CC1 (centres undefined) | 11.64 | 0.395
c1csc(-c2nc(CN3CCCCC3Cn3cccn3)co2)c1 (centres undefined) | 11.38 | -9.388
Cc1nccn1-c1ncccc1CNC(=O)c1ccc(O)nc1 | 12.03 | 6.437
Cc1nc(NCCSc2ccccn2)c2c(C)noc2n1 | 8.696 | 22.19
Cc1cnn(CCNCc2nnc(Cc3ccccc3)o2)c1 | 10.61 | -9.31
CC(C)c1n[nH]c(C2CN(C(=O)C3=COCC3)CCO2)n1 (centres undefined) | 12.6 | 13.83
Cc1cnn(CC2CCCN2CC(=O)N(C)Cc2cnn(C)c2)c1 (centres undefined) | 11.96 | -5.301
CN(Cc1nc(-c2ccccc2)no1)Cc1cnc(N2CCOCC2)s1 | 8.094 | -15.52
CN1CCN(C2CCN(CC(O)c3ccccc3)CC2)C1=O (centres undefined) | 11.05 | 4.595
CC(C)c1nc(C2CCCN(C(=O)c3ccc4c(c3)OCO4)C2)no1 (centres undefined) | 10.38 | -48.99
CN(C)C(=O)CC1CC2(CCN(Cc3ccoc3)CC2)c2ccccc21.O=C(O)C(F)(F)F (centres undefined) | - | -38.55
CCN(C)S(=O)(=O)N(CC)Cc1cccc(-c2ccncc2)c1 | -0.2688 | 4.041
NC(=O)c1ccc(CN2CCCC(N3CCCC3)C2)cc1 (centres undefined) | 14.29 | 9.262
Cc1cccc(NCc2nn(C)c(=O)[nH]2)c1 | 10.76 | 9.709
O=C(OCc1ccccc1)N1CC[C@H]2CC(CO)O[C@@H]2C1 (some centres undefined) | -0.5602 | -
[H][C@@]12CN(C(=O)CCO)C[C@]1([H])C(=O)N(c1ccccc1)C2 | - | 13.61
Cc1cc(-c2cc(N)c(=O)n(CC(=O)N3CCCC(C)C3)n2)c(C)o1 (centres undefined) | 6.562 | 8.683
CC(C)n1nc2c(cc1=O)CN(c1ncnc3ccsc13)CC2 | 5.108 | 17.6
NC(=O)Nc1cccc(Oc2ccccn2)c1 | 9.859 | -1.768
Cc1ccc(N2C[C@H](C(=O)NCC3CC3)[C@@H]3CCO[C@@H]3C2)nn1 | 7.937 | -
CC(NC(=O)Nc1ccc(S(C)(=O)=O)cc1)c1ccc2c(c1)CC(=O)N2 (centres undefined) | 13.01 | 31.92
CCS(=O)(=O)N1CCOC2(CCCN(c3cccc(C#N)c3)C2)C1 (centres undefined) | 13.33 | 8.128
CC(C)OCCN(C)C(C)c1cccc(S(N)(=O)=O)c1 (centres undefined) | -1.045 | 1.49
Cc1ccccc1CN1CCCN(S(=O)(=O)N(C)C2CCCCC2)CC1 | 14.25 | -31.79

The last 7 entries again:

{"smiles": "CC(C)n1nc2c(cc1=O)CN(c1ncnc3ccsc13)CC2", "LdMetRS": 5.108, "Mtb heat-shock": 17.6}
{"smiles": "NC(=O)Nc1cccc(Oc2ccccn2)c1", "LdMetRS": 9.859, "Mtb heat-shock": -1.768}
{"smiles": "Cc1ccc(N2C[C@H](C(=O)NCC3CC3)[C@@H]3CCO[C@@H]3C2)nn1", "LdMetRS": 7.937}
{"smiles": "CC(NC(=O)Nc1ccc(S(C)(=O)=O)cc1)c1ccc2c(c1)CC(=O)N2", "stereo": "centres undefined", "LdMetRS": 13.01, "Mtb heat-shock": 31.92}
{"smiles": "CCS(=O)(=O)N1CCOC2(CCCN(c3cccc(C#N)c3)C2)C1", "stereo": "centres undefined", "LdMetRS": 13.33, "Mtb heat-shock": 8.128}
{"smiles": "CC(C)OCCN(C)C(C)c1cccc(S(N)(=O)=O)c1", "stereo": "centres undefined", "LdMetRS": -1.045, "Mtb heat-shock": 1.49}
{"smiles": "Cc1ccccc1CN1CCCN(S(=O)(=O)N(C)C2CCCCC2)CC1", "LdMetRS": 14.25, "Mtb heat-shock": -31.79}

From ChEMBL document CHEMBL3988442, “University of Dundee, Small-Polar-MMV Screening Library” (2021).